In PMC5641084:
Results are given in words; binding and its absence hold for the method and conditions named. In cells and extracts the contact can be indirect. Some results given as binding are weak or reduced against the parent protein; the word gives no strength.

Protein sequences, listed by entry. Tags and fused reporters are not part of them.
UniProt P61073: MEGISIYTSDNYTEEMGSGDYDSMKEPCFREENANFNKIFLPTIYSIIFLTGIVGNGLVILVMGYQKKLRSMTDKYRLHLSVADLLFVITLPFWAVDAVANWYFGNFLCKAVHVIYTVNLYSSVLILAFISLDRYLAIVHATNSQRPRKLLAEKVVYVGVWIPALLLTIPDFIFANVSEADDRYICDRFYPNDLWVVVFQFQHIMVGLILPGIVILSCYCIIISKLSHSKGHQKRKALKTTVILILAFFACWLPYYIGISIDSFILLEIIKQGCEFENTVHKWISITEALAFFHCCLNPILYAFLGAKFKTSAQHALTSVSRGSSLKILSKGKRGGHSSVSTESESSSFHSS

Biological target: T1, B7-H3 (B7 homologue 3, CD276) (human (endogenous in N87)) (UniProt Q5ZPR3)
T1 sequence: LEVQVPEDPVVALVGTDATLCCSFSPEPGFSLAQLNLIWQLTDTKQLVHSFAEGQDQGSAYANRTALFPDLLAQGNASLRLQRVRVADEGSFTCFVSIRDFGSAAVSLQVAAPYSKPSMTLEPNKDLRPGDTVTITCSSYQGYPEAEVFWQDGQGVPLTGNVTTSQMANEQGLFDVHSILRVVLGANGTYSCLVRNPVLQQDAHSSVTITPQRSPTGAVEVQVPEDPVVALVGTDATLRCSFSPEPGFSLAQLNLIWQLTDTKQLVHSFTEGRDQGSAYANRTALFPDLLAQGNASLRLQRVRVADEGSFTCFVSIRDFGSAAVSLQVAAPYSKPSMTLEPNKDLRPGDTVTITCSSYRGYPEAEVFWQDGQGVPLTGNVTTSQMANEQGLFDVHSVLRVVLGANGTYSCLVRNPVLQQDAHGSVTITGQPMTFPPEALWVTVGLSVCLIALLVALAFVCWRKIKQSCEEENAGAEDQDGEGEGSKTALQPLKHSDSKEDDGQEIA
Assay: co-IP; lysate of LV-NC-infected N87 cells (100 mM KCl, 5 mM MgCl2, 10 mM HEPES pH 7.0, 0.5% NP-40, 1 mM DTT) on protein A/G beads with anti-B7-H3 antibody 4H7, 4°C for 6 h; immunoblot with B7-H3 or CXCR4 antibodies; controls: IgG or no antibody

## CXCR4 (from UniProt P61073 1-352) (receptor)
  binding: binds
